Reference: paper PMC3937361
These are yes or no findings as the source states them, for the method shown. Binding seen in cells or lysates may run through a third protein. A result given as binding can be weak or reduced; the word gives no strength.

Molecular target: T1, outer membrane protein A (OmpA), endogenous in S. flexneri HND115 (S. flexneri (endogenous in HND115))
T1 sequence: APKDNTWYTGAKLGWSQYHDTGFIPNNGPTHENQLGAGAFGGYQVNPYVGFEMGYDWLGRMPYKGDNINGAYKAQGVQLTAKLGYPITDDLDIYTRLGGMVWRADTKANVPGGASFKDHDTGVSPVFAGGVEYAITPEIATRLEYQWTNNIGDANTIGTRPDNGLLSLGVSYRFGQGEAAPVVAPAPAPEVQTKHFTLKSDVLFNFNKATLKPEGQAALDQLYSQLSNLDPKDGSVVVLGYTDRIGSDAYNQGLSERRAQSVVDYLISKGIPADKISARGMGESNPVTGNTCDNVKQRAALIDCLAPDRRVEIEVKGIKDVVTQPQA
Experiment: cross-linking; in vivo, 1% formaldehyde for 15 min at room temperature on S. flexneri HND115 or HND93 carrying the plasmids, PBS pH 6.8; samples heated at 37°C (cross-links kept) or 95°C (broken); blots with anti-HA and anti-OmpA

For “PhoN2-HA R192P (pHND19_(R192P)) (S. flexneri)”, the binding was “binds”.
